Article PMC7329908
Results are given in words; binding and its absence hold for the method and conditions named. Some binding calls cover weakened binding; strength is not graded here.

Target: C. elegans Hsp90 (HSP-90) (C. elegans) (UniProt Q18688)
Test: AUC; sedimentation velocity with fluorescence detection; 600 nM ATTO 488-labelled GRLBDm, 3 μM unlabelled chaperones and cofactors, 2 mM ATPγS; 20 mM HEPES, 20 mM KCl, 5 mM MgCl2, 50 μM dexamethasone, pH 7.5; 42,000 rpm, 20 °C; both purified

B1: Cep23/DAF-41, nematode p23 homolog (protein, UniProt Q23280 1-175)
chain: MAKQPTVLWAQRESLVYLTIEVDEAKIEELKGEGNKLHFQGSSKTDKYEATLEFFDEIDPASVKHTGSSTRVVEITVQKKTPAWWPRLLQNKGKVHWLKVDFGKWKDEDEDDEAEDAGAGIGGGMANGFDLNQYMSQMGGAGGADFGGLEDDEEDDDMPDLEDNEEEEGKNGTRA
  binding: binds weakly
